# Data from paper doi:10.1101/144360 (bioRxiv, 2017).
# Amino acid sequences for entries named in this document (tags omitted). A change or cut given only in a name is not applied to a line headed by its entry. Residues count along the entry.
# UniProt O74653, 698-808: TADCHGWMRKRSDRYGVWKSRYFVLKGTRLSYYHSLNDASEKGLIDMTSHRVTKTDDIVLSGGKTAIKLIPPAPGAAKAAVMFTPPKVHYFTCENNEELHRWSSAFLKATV
# UniProt P38261, 121-141: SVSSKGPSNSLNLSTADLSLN
# UniProt P38261, whole entry: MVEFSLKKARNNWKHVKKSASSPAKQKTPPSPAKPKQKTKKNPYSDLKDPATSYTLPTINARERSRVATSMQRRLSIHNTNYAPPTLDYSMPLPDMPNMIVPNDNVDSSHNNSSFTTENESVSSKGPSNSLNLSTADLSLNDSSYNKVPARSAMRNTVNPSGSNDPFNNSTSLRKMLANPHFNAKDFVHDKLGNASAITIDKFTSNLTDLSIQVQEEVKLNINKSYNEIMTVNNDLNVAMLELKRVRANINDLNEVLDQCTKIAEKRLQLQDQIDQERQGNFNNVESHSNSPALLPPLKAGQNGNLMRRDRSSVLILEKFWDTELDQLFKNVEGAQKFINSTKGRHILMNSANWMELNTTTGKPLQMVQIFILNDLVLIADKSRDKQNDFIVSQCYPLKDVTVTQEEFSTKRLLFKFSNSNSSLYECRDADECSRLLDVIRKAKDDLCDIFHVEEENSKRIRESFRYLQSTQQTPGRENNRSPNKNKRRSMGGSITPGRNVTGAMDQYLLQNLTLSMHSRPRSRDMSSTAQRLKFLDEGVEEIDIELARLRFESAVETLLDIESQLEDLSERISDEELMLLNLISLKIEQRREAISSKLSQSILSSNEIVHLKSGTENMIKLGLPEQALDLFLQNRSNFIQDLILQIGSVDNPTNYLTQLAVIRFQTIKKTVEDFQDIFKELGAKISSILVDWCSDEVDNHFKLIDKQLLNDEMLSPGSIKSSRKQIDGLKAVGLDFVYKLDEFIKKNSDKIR
# UniProt P30619, whole entry: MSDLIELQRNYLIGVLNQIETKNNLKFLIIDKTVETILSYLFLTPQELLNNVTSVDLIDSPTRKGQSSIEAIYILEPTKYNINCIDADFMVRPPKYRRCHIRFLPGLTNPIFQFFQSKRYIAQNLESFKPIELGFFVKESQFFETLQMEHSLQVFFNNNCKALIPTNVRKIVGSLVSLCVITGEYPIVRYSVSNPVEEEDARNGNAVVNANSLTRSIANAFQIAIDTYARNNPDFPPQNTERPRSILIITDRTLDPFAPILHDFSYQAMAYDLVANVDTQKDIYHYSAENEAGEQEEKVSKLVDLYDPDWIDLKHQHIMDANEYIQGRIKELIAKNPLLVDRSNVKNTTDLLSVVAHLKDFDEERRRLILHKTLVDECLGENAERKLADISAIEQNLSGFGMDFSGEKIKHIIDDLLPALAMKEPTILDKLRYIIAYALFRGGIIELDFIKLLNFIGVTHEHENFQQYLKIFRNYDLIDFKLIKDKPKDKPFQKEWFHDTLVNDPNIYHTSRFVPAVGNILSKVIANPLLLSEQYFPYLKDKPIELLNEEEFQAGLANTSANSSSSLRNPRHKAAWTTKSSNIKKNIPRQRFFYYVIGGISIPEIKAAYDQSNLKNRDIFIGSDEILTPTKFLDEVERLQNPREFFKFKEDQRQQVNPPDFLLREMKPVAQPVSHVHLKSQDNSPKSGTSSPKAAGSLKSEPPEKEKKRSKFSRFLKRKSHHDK
# UniProt P33332, 481-521: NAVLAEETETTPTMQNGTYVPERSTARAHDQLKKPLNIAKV
# No constants are given. Whether binding was seen depends on the method and setting. For some of these results: Binding seen in cells or lysates may run through a third protein. Some results given as binding are weak or reduced against the parent protein; the word gives no strength. For some of these results: Where a sequence is shown, tags or fusion partners need not be part of it.
# T1: GST-SH3_(Boi1) (S. cerevisiae) (UniProt P38041)
# T1 sequence: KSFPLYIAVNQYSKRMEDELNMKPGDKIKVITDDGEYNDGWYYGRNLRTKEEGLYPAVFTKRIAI
# T2: GST-SH3_(Boi2) (S. cerevisiae) (UniProt P39969)
# T2 sequence: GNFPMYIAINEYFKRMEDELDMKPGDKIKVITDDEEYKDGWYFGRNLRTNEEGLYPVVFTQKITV
# T3: Boi1CRU (S. cerevisiae) (UniProt P38041)
# T3 sequence: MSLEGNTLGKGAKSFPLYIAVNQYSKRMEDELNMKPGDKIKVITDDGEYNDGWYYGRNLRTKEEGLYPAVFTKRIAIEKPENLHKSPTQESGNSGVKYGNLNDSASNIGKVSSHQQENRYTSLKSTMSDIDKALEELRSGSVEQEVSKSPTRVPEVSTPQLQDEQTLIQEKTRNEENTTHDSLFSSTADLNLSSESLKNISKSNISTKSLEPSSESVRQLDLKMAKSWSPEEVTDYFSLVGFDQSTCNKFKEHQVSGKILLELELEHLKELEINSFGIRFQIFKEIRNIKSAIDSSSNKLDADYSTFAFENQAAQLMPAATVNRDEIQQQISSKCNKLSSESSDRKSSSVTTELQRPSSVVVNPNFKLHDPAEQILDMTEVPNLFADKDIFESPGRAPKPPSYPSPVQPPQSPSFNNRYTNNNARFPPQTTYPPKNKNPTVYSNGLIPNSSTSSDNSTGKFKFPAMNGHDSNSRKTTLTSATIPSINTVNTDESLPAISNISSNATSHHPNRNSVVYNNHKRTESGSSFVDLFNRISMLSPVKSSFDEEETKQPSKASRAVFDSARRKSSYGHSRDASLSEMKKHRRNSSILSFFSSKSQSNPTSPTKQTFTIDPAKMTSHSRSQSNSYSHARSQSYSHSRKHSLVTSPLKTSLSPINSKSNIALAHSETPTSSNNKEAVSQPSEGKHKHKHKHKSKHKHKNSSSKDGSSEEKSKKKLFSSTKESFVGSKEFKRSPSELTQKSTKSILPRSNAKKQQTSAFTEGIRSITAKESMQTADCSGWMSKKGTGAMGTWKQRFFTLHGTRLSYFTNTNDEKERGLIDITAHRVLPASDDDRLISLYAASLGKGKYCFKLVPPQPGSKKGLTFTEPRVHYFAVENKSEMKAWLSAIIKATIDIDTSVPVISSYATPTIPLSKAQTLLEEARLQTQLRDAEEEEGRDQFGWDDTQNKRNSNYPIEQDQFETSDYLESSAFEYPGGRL
# Assays:
# [1] = target: 6xHis-Cdc42_(G12V) (S. cerevisiae) (UniProt P19073); experiment: SEC
# [2] = target: GST-PH_(Boi1) (S. cerevisiae) (UniProt P38041); experiment: pull-down
# [3] = target: GST-PH_(Boi1RLT) (S. cerevisiae) (UniProt P38041); experiment: pull-down
# [4] = target: GST-PH_(SpBoi) (S. pombe) (UniProt O74653); experiment: pull-down
# [5] = target: 6xHis-Exo84_(121-141)-AGT (S. cerevisiae) (UniProt P38261); experiment: SEC
# [6] = target: T1, GST-SH3_(Boi1) (S. cerevisiae); experiment: pull-down
# [7] = target: T2, GST-SH3_(Boi2) (S. cerevisiae); experiment: pull-down
# [8] = target: 6xHis-Sec1p (S. cerevisiae) (UniProt P30619); experiment: SEC
# [9] = target: GST-PH_(Boi2) (S. cerevisiae) (UniProt P39969); experiment: pull-down
# [10] = target: 6xHis-Sec3_(481-521)-AGT (S. cerevisiae) (UniProt P33332); experiment: SEC
# Exo84CRU (S. cerevisiae) = Exo84CRU (S. cerevisiae) (UniProt P38261); experiment: split reporter
# Boi1CRU (S. cerevisiae) = target: T3, Boi1CRU (S. cerevisiae); experiment: split reporter
# [11] = target: PH_(Boi1)CRU (S. cerevisiae) (UniProt P38041); experiment: split reporter
# [12] = target: 6xHIS-SH3_(Boi1) (S. cerevisiae) (UniProt P38041); experiment: SEC
molecule,measurement,setting,value
6xHis-Cdc42_(G12V) (from UniProt P19073 1-191),binding,[1],no binding
same,binding,[2],binds
same,binding,[3],no binding
same,binding,[4],binds
6xHis-Exo84_(121-141)-AGT (from UniProt P38261 121-141) (peptide),binding,[5],no binding
same,binding,[6],binds
same,binding,[7],no binding
6xHis-Sec1p (from UniProt P30619 1-724),binding,[8],no binding
same,binding,[2],binds
same,binding,[3],binds
same,binding,[9],binds
same,binding,[4],binds
6xHis-Sec3_(481-521)-AGT (from UniProt P33332 481-521) (peptide),binding,[10],no binding
same,binding,[6],binds
same,binding,[7],no binding
Nub-Boi1_(70-980) (from UniProt P38041 70-980) (domain or fragment),binding,Exo84CRU (S. cerevisiae),no binding
"Nub-Bud6p (protein, UniProt P41697 1-788) MKMAVDDPTYGTPKIKRTASSSSSIETTVTKLLMSTKHLLQVLTQWSKGTTSGRLVSDAYVQLGNDFKVVSKFFMHAKVDMSDVGDVPMALRRVLEVTLREPPSDETLNKHLPKIREIIVTLLDKLKVKQAILKNMQQEHRISVKSHHQQNPSFTSNLSLGSEGTREGTPLSSRKSSIVRDQRQSDSVENSYGEKVNSTSTGTPSAQSAEATLTKPRTNIKQNLKSNNAPNASDDDDALSQLKKGTNLQRRASKRYSAYHMAKLTNQSTTEAAAAAGLMTTPSPSMLHLEETVRKSKLYGNNNNDDDRNINSAENKGKSIDDVSKASPLAKTPLPIENVRASPRRLSSVVTTSPDKAMNGTCPVFLRIGDKTKKCHVQLPTTKNALRLLFIERFAYSPGANSFPDIYIMDPQYGVFYELEELNLLDIKEGFVIELKLEENPNNTIKEFIDTVKMEISNSQNDIIRHLKEMSFGSAISGKQTEVLPQPGLEANKHDLVGQNKKDDDKTIKDIQYELGKIKQVHNINRSNINETIFNILRKVDNFKSLSFSAKNSSNRMYMEKSQTELGDLSDTLLSKVDDLQDVIEIMRKDVAERRSQPAKKKLETVSKDLENAQADVLKLQEFIDTEKPHWKKTWEAELDKVCEEQQFLTLQEELILDLKEDLGKALETFDLIKLCCEEQEKNPSRSKSNPILPIMRPGTFNQVREQVMVAVQSLNPDHDSRVEAIDKAEKMWEMERKLKASNEFDDELENFVGNSNLKKSGGFEEVERIRKQKDEANLRAYFGPGFT",binding,Boi1CRU (S. cerevisiae),binds
same,binding,[11],no binding
"6xHIS-SH3_(Boi1) (domain or fragment, UniProt P38041 13-77) KSFPLYIAVNQYSKRMEDELNMKPGDKIKVITDDGEYNDGWYYGRNLRTKEEGLYPAVFTKRIAI",binding,[12],no binding
